The target of this experiment is Hydrogenobacter thermophilus cytochrome c552, wild type, without a His-tag (holo protein) (Hydrogenobacter thermophilus) (UniProt P15452). The experiment can be described thus: condition: only HT cyt c552 and cyt c552 free E. coli lysate freeze-thawed together; SEC; control: HT cyt c552 and cyt c552 free E. coli lysate freeze-thawed together, then size exclusion chromatography (Fig. S1). On the technique in general: Size exclusion chromatography separates by hydrodynamic size, large species first.

These are yes or no findings as the source states them, for the method shown. Tags and fused reporters may be left off the sequences shown.

B1: Hydrogenobacter thermophilus cytochrome c552, wild type, without a His-tag (holo protein) (natural protein, UniProt P15452 19-98, looked up)
chain: NEQLAKQKGCMACHDLKAKKVGPAYADVAKKYAGRKDAVDYLAGKIKKGGSGVWGSVPMPPQNVTDAEAKQLAQWILSIK
modifications: heme c attached (holo protein)
For the molecule B1, the binding entry is listed as “no binding”.

The values are drawn from publication PMC4738263 (Scientific Reports, 2016).
